{"source": "PubChem BioAssay AID1259424 | University of Nebraska Medical Center, 2018", "assay": "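Find knockdowns that reproduce the expression shifts seen after KSR1 loss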 (primary screen)", "system": "human HCT116 colon cancer cells", "reagent": "siRNA pool against human genes, 50 nM", "measured": "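Six signature mRNAs by branched-DNA multiplex assay, scaled to two housekeeping genes and non-targeting median, log2; matched to mean KSR1 knockdown profile by Pearson correlation and euclidean distance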", "direction": "mean correlation with KSR1 profile: higher = expression change more like KSR1 knockdown; mean distance from KSR1 profile: higher = expression change less like KSR1 knockdown", "note": "In all, the deposit lists about 14,000 reagents; this is a part drawn at random. 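Higher correlation or smaller distance means closer resemblance to KSR1 loss; control wells, including KSR1 knockdowns, recur on many plates.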 Further read-outs or replicates are left out here. Not stated in the record: the time to read-out."}
The first 2 entries, ahead of the listing:
{"gene symbol": "PCDHB12", "mean correlation with KSR1 profile": 0.864, "mean distance from KSR1 profile": 0.994}
{"gene symbol": "LAMB3", "mean correlation with KSR1 profile": -0.0381, "mean distance from KSR1 profile": 4.16}

Main list, from the first entry:
{"gene symbol": "PCDHB12", "mean correlation with KSR1 profile": 0.864, "mean distance from KSR1 profile": 0.994}
{"gene symbol": "LAMB3", "mean correlation with KSR1 profile": -0.0381, "mean distance from KSR1 profile": 4.16}
{"gene symbol": "COL18A1", "mean correlation with KSR1 profile": -0.176, "mean distance from KSR1 profile": 1.75}
{"gene symbol": "LTC4S", "mean correlation with KSR1 profile": 0.305, "mean distance from KSR1 profile": 2.4}
{"gene symbol": "PGM3", "mean correlation with KSR1 profile": 0.226, "mean distance from KSR1 profile": 1.24}
{"gene symbol": "TRPC4", "mean correlation with KSR1 profile": -0.222, "mean distance from KSR1 profile": 2.27}
{"gene symbol": "MTAP", "mean correlation with KSR1 profile": 0.332, "mean distance from KSR1 profile": 1.8}
{"gene symbol": "HIVEP2", "mean correlation with KSR1 profile": 0.536, "mean distance from KSR1 profile": 2.52}
{"gene symbol": "RPL22", "mean correlation with KSR1 profile": -0.00811, "mean distance from KSR1 profile": 1.99}
{"gene symbol": "IGF2-AS", "mean correlation with KSR1 profile": -0.136, "mean distance from KSR1 profile": 2.28}
{"gene symbol": "SNAP29", "mean correlation with KSR1 profile": 0.0485, "mean distance from KSR1 profile": 2.19}
{"gene symbol": "ABCF2", "mean correlation with KSR1 profile": 0.137, "mean distance from KSR1 profile": 1.55}
